Here are results for eight sequences from publication PMC4341510.

The exact form of at least one protein or probe is not confirmed. Weaker means in comparison with the reference protein, sequence or condition of that experiment. At least one verdict rests on a figure or table, not on a statement of the authors.

The target of the first data set is TcJAMYC1 (Taxus cuspidata (cell culture line P991)) (UniProt B9VVN9). In words: competition EMSA. Particulars: 20X vs CATGTG probe, did not compete well; 20 mM HEPES-KOH pH 7.9, 20% glycerol, 0.2 mM EDTA, 100 mM KCl, 0.5 mM PMSF, 1 mM DTT, 15 mM MgCl2, 5 ug BSA; 175 fmol probe in 20 ul; gel 7% PAGE, 0.5X TBE, 4 C; recombinant protein; protein details: N-terminal 6xHis (pDEST17). Background: Mobility shift assays separate free from complexed probe on a gel.
For “TAGCGCATCGATCATCTGATCGATCG / CGTACGATCGATCAGATGATCGATGC [CATCTG E-box]”, the binding result is listed as “binds more weakly”.

For “TAGCGCATCGATCACCTGATCGATCG / CGTACGATCGATCAGGTGATCGATGC [CACCTG E-box]”, the binding result is given as “binds more weakly”.

Consider “TAGCGCATCGATCAATTGATCGATCG / CGTACGATCGATCAATTGATCGATGC [CAATTG E-box]”, for which the binding result is listed as “binds more weakly”.

For “TAGCGCATCGATCATATGATCGATCG / CGTACGATCGATCATATGATCGATGC [CATATG E-box]”, the binding result is recorded as “binds more weakly”.

Turning to “TAGCGCATCGATCATTTGATCGATCG / CGTACGATCGATCAAATGATCGATGC [CATTTG E-box]”, the binding result is on record as “binds more weakly”.

On to “TAGCGCATCGATCAAGTGATCGATCG / CGTACGATCGATCACTTGATCGATGC [CAAGTG E-box]”, for which the binding result was “binds more weakly”.

As for “TAGCGCATCGATCAACTGATCGATCG / CGTACGATCGATCAGTTGATCGATGC [CAACTG E-box]”, the binding result is given as “binds more weakly”.

Staying with this data set, now noted: vs CACGTG probe, did not efficiently compete; 20 mM HEPES-KOH pH 7.9, 20% glycerol, 0.2 mM EDTA, 100 mM KCl, 0.5 mM PMSF, 1 mM DTT, 15 mM MgCl2, 5 ug BSA; 175 fmol probe in 20 ul; gel 7% PAGE, 0.5X TBE, 4 C; recombinant protein; protein details: N-terminal 6xHis (pDEST17).
For the sequence “TAGCGCATCGATCATGTGATCGATCG / CGTACGATCGATCACATGATCGATGC [CATGTG E-box]”, the binding result is given as “binds more weakly”.
